# From PubChem BioAssay AID445 (National Center for Advancing Translational Sciences (NCATS), 2006)
# The list shows a part of the results. Shown are side measurements of this screen, not its main read-out; they come without a call. The list favours compounds with an active or inconclusive main result. The note in brackets gives the kind of curve behind each potency; many fits are weak.
# Experiment: IkB Signaling
# Details: ABC-DLBCL IkBa-CBG/CBR dual luciferase ratio (green luciferase fused to IkBa over red control in OCI-Ly3 lymphoma cells), 4 h
# Procedure, shortened: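 Luminescence ratio of IκBα-fused green versus native red beetle luciferase in OCI-Ly3 cells, 4 h post-doxycycline with compound; red signal alone, scaled from basal (0%) to zero light (-100%), flagged nonspecific or cytotoxic effects.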
# [1] = measured here: control luc red channel unless noted
smiles,measurement,setting,value
O=C1C(C2=C(O)c3ccccc3C2=O)=Nc2ccccc21,AC50,[1],"0.02 µM [falling, full curve]"
COc1ccc(CCNC(=O)c2ccc3c(c2)N(Cc2ccc(Cl)cc2)CCS3)c(OC)c1,AC50,[1],"12.6 µM [falling, partial curve]"
O=C1CC(c2ccc(Cl)cc2)Sc2nc(-c3ccc(F)cc3)nn21 (centres undefined),AC50,[1],"12.6 µM [falling, partial curve]"
COc1ccc(-c2cnc(C)o2)cc1S(=O)(=O)Nc1ccc(C)c(N(C)C)c1,AC50,[1],"0.00631 µM [rising, full curve]"
N#C/C(=C1/CCCCCN1)c1nc2ccccc2s1,AC50,[1],"0.126 µM [falling, full curve]"
Cn1c(=O)[nH]c2cc(-c3noc(-c4ccc(F)cc4)n3)ccc21,AC50,[1],"0.126 µM [rising, full curve]"
CCn1c(=O)cc(SCC(=O)NCCc2ccc(OC)cc2OC)c2ccccc21,AC50,[1],"31.6 µM [falling, single point]"
CCCn1c(=O)c2sccc2n2c(CCCC(=O)Nc3cccc(CC)c3)nnc12,AC50,[1],"39.8 µM [falling, single point]"
Cn1c(CN2CCCCC2)nc2cc(NC(=O)c3ccc(F)cc3)ccc21,AC50,[1],"10 µM [falling, partial curve]"
COc1ccccc1CNC(=O)CCCCn1c(=O)c2ccccc2n(CC(=O)Nc2cc(Cl)ccc2C)c1=O,AC50,[1],"31.6 µM [rising, single point] [measured here: IkB-luc green channel]"
CCOC(=O)C1(Cc2ccccc2)NC(c2ccccc2F)C2C(=O)N(CC)C(=O)C21 (centres undefined),AC50,measured here: IkB-luc green channel,"20 µM [falling, partial curve, poor fit]"
same,AC50,measured here: control luc red channel,"20 µM [falling, single point]"
O=C(CN(Cc1ccco1)C(=O)CNS(=O)(=O)c1ccc(Cl)cc1)NCc1ccc(F)cc1,AC50,[1],"20 µM [falling, partial curve]"
COc1ccc2c(c1)c1c(c(=O)n(-c3ccccc3C)c(=O)n1CC(=O)Nc1c(C)cccc1C)n2C,AC50,[1],"1.58 µM [falling, partial curve]"
O=c1c2[nH]c3ccccc3c2nc(SCc2cccc(F)c2)n1-c1ccccc1,AC50,[1],"0.02 µM [falling, full curve, poor fit]"
Cc1cccc(C(=O)Nc2ccccc2SCc2cc(=O)c3cccc(C)c3[nH]2)c1,AC50,[1],"25.1 µM [falling, partial curve, poor fit]"
Cc1nnc(N2CCN(c3ccccc3F)CC2)c2c1nnn2Cc1ccccc1,AC50,[1],"25.1 µM [falling, partial curve]"
CCOc1ccc(NC(=O)CC2C(=O)N(c3cccc(C)c3)C(=O)N2Cc2cccnc2)cc1 (centres undefined),AC50,[1],"15.8 µM [falling, single point]"
CCCCc1nn2c(=O)cc(COC(=O)c3ccc(NC(=O)C4CCCCC4)cc3)nc2s1,AC50,[1],"0.00794 µM [falling, full curve, poor fit]"
Cc1ccc(Cn2c(=O)n(Cc3ccccc3Cl)c(=O)c3ccccc32)cc1,AC50,[1],"25.1 µM [falling, single point]"
COc1cccc(NC(=O)CN(c2ccc(C)cc2)S(=O)(=O)c2c(C)nn(C)c2C)c1,AC50,[1],"2 µM [falling, full curve, poor fit]"
Cc1ccccc1C(=O)Nc1nnc(S(=O)(=O)N2CCCCCC2)s1,AC50,[1],"2 µM [rising, partial curve]"
Cc1ccc(Cl)cc1N1CCN(C(=O)C2CCN(Cc3nc(-c4cccc(Cl)c4)oc3C)CC2)CC1,AC50,[1],"10 µM [falling, partial curve]"
CCc1nn2c(=O)cc(COC(=O)C(c3ccccc3)c3ccccc3)nc2s1,AC50,[1],"31.6 µM [falling, single point]"
Cc1cccc(-c2nc(SCC(=O)Nc3ccc4c(c3)OCCO4)c(-c3ccccc3)[nH]2)c1,AC50,[1],"10 µM [falling, partial curve]"
Cc1cc(C)cc(N(CC(=O)NCc2ccccc2Cl)S(=O)(=O)c2c(C)noc2C)c1,AC50,[1],"10 µM [falling, partial curve]"
O=C(COc1ccccc1)Nc1ccccc1C(=O)OCc1cc(=O)n2nc(C3CC3)sc2n1,AC50,[1],"12.6 µM [falling, partial curve]"
Cc1c(C(=O)N2CCC(C)CC2)c(S(=O)(=O)N2CCN(c3ccc(Cl)cc3)CC2)c(C)n1C,AC50,[1],"20 µM [falling, single point]"
Cc1ccc(Cl)cc1N1CCN(C(=O)C2CCN(Cc3nc(-c4ccc(Cl)cc4)oc3C)CC2)CC1,AC50,[1],"15.8 µM [falling, partial curve]"
CC(C)(C)OC(=O)N1CCC(c2c(C(=O)NC3CCCCC3)cnn2-c2cccc(Cl)c2)CC1,AC50,[1],"20 µM [falling, partial curve]"
Cn1nccc1C(=O)NCc1ccc2c(c1)CCN2C(=O)c1ccccc1,AC50,[1],"7.94 µM [falling, partial curve]"
COc1ccc(-c2nc3sc(CCNC(=O)C(=O)Nc4c(C)cccc4C)c(C)n3n2)cc1,AC50,[1],"1.58 µM [rising, full curve, poor fit]"
O=C(Cn1c(=O)oc2cc(S(=O)(=O)NC3CCCC3)ccc21)Nc1ccc(F)c(F)c1,AC50,[1],"12.6 µM [falling, partial curve]"
O=c1[nH]c(CN2CCN(C/C=C/c3ccccc3)CC2)nc2cc(Cl)ccc12,AC50,[1],"15.8 µM [falling, partial curve]"
COc1ccccc1CNC(=O)c1cnn2c(C)c(Cc3ccc(F)cc3)c(C)nc12,AC50,[1],"1.26 µM [falling, full curve, poor fit]"
COc1cccc(C2CC(=O)Nc3c2c(=O)nc2c(C)cccn32)c1OC (centres undefined),AC50,[1],"6.31 µM [rising, single point]"
Cc1ccc(-c2nc3cc(Cl)ccc3o2)cc1NC(=O)COc1ccc(F)cc1,AC50,[1],"1 µM [falling, full curve]"
CN1CCN(C(c2cccc(Br)c2)c2sc3nc(-c4ccco4)nn3c2O)CC1 (centres undefined),AC50,[1],"15.8 µM [rising, partial curve]"
CC(C)Cn1c(N)c(C(=O)COC(=O)C2CCCCC2)c(=O)n(C)c1=O,AC50,[1],"15.8 µM [falling, partial curve]"

# Nothing new here: an excerpt of the list.
smiles,measurement,setting,value
COc1ccccc1CNC(=O)CCCCn1c(=O)c2ccccc2n(CC(=O)Nc2cc(Cl)ccc2C)c1=O,AC50,[1],"31.6 µM [rising, single point] [measured here: IkB-luc green channel]"
CCOC(=O)C1(Cc2ccccc2)NC(c2ccccc2F)C2C(=O)N(CC)C(=O)C21 (centres undefined),AC50,measured here: IkB-luc green channel,"20 µM [falling, partial curve, poor fit]"
same,AC50,measured here: control luc red channel,"20 µM [falling, single point]"
O=C(CN(Cc1ccco1)C(=O)CNS(=O)(=O)c1ccc(Cl)cc1)NCc1ccc(F)cc1,AC50,[1],"20 µM [falling, partial curve]"
COc1ccc2c(c1)c1c(c(=O)n(-c3ccccc3C)c(=O)n1CC(=O)Nc1c(C)cccc1C)n2C,AC50,[1],"1.58 µM [falling, partial curve]"
O=c1c2[nH]c3ccccc3c2nc(SCc2cccc(F)c2)n1-c1ccccc1,AC50,[1],"0.02 µM [falling, full curve, poor fit]"
Cc1cccc(C(=O)Nc2ccccc2SCc2cc(=O)c3cccc(C)c3[nH]2)c1,AC50,[1],"25.1 µM [falling, partial curve, poor fit]"
